# Melanoma cell counts after drug treatment

Values as published with doi:10.1371/journal.pone.0140310, rounded.

Compounds and concentrations:
SNS-314: O=C(Nc1cccc(Cl)c1)Nc1ncc(CCNc2ncnc3ccsc23)s1 at 0.0008 µM
bortezomib: CC(C)C[C@H](NC(=O)[C@H](Cc1ccccc1)NC(=O)c1cnccn1)B(O)O at 0.001 µM
palbociclib: CC(=O)c1c(C)c2cnc(Nc3ccc(N4CCNCC4)cn3)nc2n(C2CCCC2)c1=O at 0.04 µM
docetaxel: CC(=O)O[C@@]12CO[C@@H]1C[C@H](O)[C@@]1(C)C(=O)[C@H](O)C3=C(C)[C@@H](OC(=O)[C@H](O)[C@@H](NC(=O)OC(C)(C)C)c4ccccc4)C[C@@](O)([C@@H](OC(=O)c4ccccc4)[C@H]21)C3(C)C at 0.0001 µM
gemcitabine: Nc1ccn([C@@H]2O[C@H](CO)[C@@H](O)C2(F)F)c(=O)n1 at 0.0004 µM
VX-702: NC(=O)c1ccc(N(C(N)=O)c2c(F)cccc2F)nc1-c1ccc(F)cc1F at 0.4 µM
RKI-983: C[C@@H](N)c1ccc(C(=O)Nc2ccnc3[nH]ccc23)cc1 at 0.4 µM
cisplatin: N.N.[Cl][Pt][Cl] at 1.6 µM
sunitinib: CCN(CC)CCNC(=O)c1c(C)[nH]c(/C=C2\C(=O)Nc3ccc(F)cc32)c1C at 0.4 µM
T0901317: O=S(=O)(c1ccccc1)N(CC(F)(F)F)c1ccc(C(O)(C(F)(F)F)C(F)(F)F)cc1 at 1.4 µM
cediranib: COc1cc2c(Oc3ccc4[nH]c(C)cc4c3F)ncnc2cc1OCCCN1CCCC1 at 0.4 µM
fingolimod: CCCCCCCCc1ccc(CCC(N)(CO)CO)cc1 at 2 µM
indole-3-carbinol: OCc1c[nH]c2ccccc12 at 0.8 µM
PF-04217903: OCCn1cc(-c2cnc3nnn(Cc4ccc5ncccc5c4)c3n2)cn1 at 1 µM
GW441756: Cn1cc(/C=C2\C(=O)Nc3cccnc32)c2ccccc21 at 0.4 µM
OSI-906: C[C@]1(O)C[C@@H](c2nc(-c3ccc4ccc(-c5ccccc5)nc4c3)c3c(N)nccn32)C1 at 0.4 µM
dovitinib: CN1CCN(c2ccc3nc(-c4c(N)c5c(F)cccc5[nH]c4=O)[nH]c3c2)CC1 at 0.1 µM
XAV939: Oc1nc(-c2ccc(C(F)(F)F)cc2)nc2c1CSCC2 at 2 µM

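The test systems are human melanoma cell lines, treated with two drugs together for 72 h and then stained and imaged. Values are the number of DAPI-stained nuclei as a percentage of the DMSO control: 100 is no effect, lower means fewer cells. Every drug was used at one fixed concentration, the lower of two screened (a fifth of the higher). These are primary screening values without error estimates.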
This is part of the screen, not chosen by result.
An entry leaves out what has no value listed here.
A dash means that no value is listed here.

| Combination | LOX IMVI | A101D | 501mel | C32 | MEL-HO | IST-MEL1 | COLO 800 | LB2518-MEL | A375 | COLO 792 |
|---|---|---|---|---|---|---|---|---|---|---|
| gemcitabine and VX-702 | 136 | 87.7 | - | 106 | 84.6 | 70.8 | 50.1 | 88.1 | 125 | 102 |
| SNS-314 and palbociclib | 94.3 | 80.0 | - | 78.9 | 89.0 | 86.6 | 112 | 76.7 | 83.2 | 61.9 |
| sunitinib and cediranib | 118 | 72.4 | - | 89.1 | 114 | 112 | 111 | 96.5 | 66.1 | 98.6 |
| gemcitabine and fingolimod | 110 | 79.7 | - | 98.7 | 87.6 | 77.8 | 65.9 | 111 | 75.3 | 89.2 |
| SNS-314 and docetaxel | 67.1 | 77.2 | - | 53.6 | 61.7 | 48.2 | 35.7 | 74.1 | 21.1 | 37.2 |
| VX-702 and GW441756 | 132 | 93.6 | 70.7 | 97.4 | 88.7 | 96.8 | 124 | 97.1 | - | 92.2 |
| XAV939 and SNS-314 | 82.6 | 99.0 | 99.3 | 106 | 97.6 | 94.5 | 98.1 | 105 | 113 | 86.9 |
| VX-702 and indole-3-carbinol | 45.5 | 89.7 | - | 94.8 | 114 | 97.6 | 71.8 | 86.7 | 91.9 | 90.4 |
| RKI-983 and VX-702 | 101 | 105 | - | 99.1 | 98.2 | 97.7 | 98.0 | 127 | 101 | 89.2 |
| GW441756 and indole-3-carbinol | 134 | 95.1 | 123 | 91.3 | 120 | 102 | 94.9 | 94.7 | - | 100 |
| docetaxel and indole-3-carbinol | 53.1 | 77.8 | - | 73.9 | 47.9 | 66.4 | 24.0 | 63.0 | 22.1 | 38.4 |
| XAV939 and docetaxel | 40.9 | 63.1 | 75.5 | 76.5 | 72.7 | 69.8 | 40.3 | 59.3 | - | 34.9 |
| gemcitabine and SNS-314 | 95.4 | 97.9 | - | 94.3 | 114 | 69.2 | 99.7 | 105 | 90.4 | 97.1 |
| PF-04217903 and T0901317 | 114 | 96.0 | 92.1 | 110 | 91.6 | 105 | 121 | 88.5 | 86.2 | 104 |
| indole-3-carbinol and PF-04217903 | 103 | 95.4 | - | 89.1 | 115 | 102 | 106 | 79.2 | 96.0 | 89.6 |
| dovitinib and VX-702 | 87.2 | 84.8 | - | 123 | 82.9 | 107 | 116 | 101 | 93.2 | 112 |
| fingolimod and XAV939 | 66.8 | 94.1 | 56.0 | 95.2 | 86.7 | 101 | 53.3 | 92.2 | - | 84.3 |
| dovitinib and docetaxel | 92.4 | 63.4 | - | 86.5 | 55.9 | 61.5 | 26.0 | 57.1 | 24.1 | 28.0 |
| bortezomib and indole-3-carbinol | 85.7 | 37.3 | - | 83.7 | 93.4 | 86.0 | 75.2 | 45.2 | 78.0 | 101 |
| T0901317 and SNS-314 | 123 | 97.9 | 89.7 | 78.0 | 115 | 96.5 | 62.2 | 103 | 88.1 | 83.9 |
| dovitinib and RKI-983 | 104 | 89.1 | - | 84.5 | 88.9 | 105 | 203 | 107 | 86.3 | 109 |
| GW441756 and SNS-314 | 57.3 | 99.2 | 106 | 86.8 | 106 | 92.1 | 96.3 | 100 | 108 | 108 |
| GW441756 and cediranib | 104 | 110 | 73.5 | 85.1 | 114 | 93.8 | 110 | 91.5 | 77.9 | 100 |
| PF-04217903 and docetaxel | 89.8 | 68.1 | - | 67.6 | 56.7 | 58.8 | 53.6 | 77.2 | 15.1 | 34.2 |
| OSI-906 and RKI-983 | 44.0 | 89.6 | - | 88.3 | 64.9 | 103 | 96.9 | 76.8 | 56.3 | 82.5 |
| palbociclib and T0901317 | 95.9 | 66.4 | - | 64.1 | 97.1 | 82.2 | 69.2 | - | - | 65.6 |
| RKI-983 and palbociclib | 96.8 | 68.0 | - | 56.6 | 84.3 | 91.2 | 74.0 | 86.4 | 52.0 | 55.8 |
| fingolimod and sunitinib | 126 | 82.3 | - | 87.1 | 98.1 | 100 | 105 | 108 | 61.9 | 81.9 |
| bortezomib and T0901317 | 71.1 | 23.1 | 43.1 | 63.7 | 77.4 | 77.5 | 76.6 | 33.9 | - | 92.8 |
| XAV939 and cediranib | 102 | 102 | 101 | 85.4 | 70.5 | 103 | 105 | 107 | 87.1 | 76.2 |
| dovitinib and bortezomib | 35.2 | 13.0 | - | 89.2 | 70.3 | 71.3 | 108 | 29.9 | 80.9 | 85.2 |
| T0901317 and OSI-906 | 115 | 96.2 | 83.4 | 112 | 84.1 | 102 | 55.7 | 93.9 | - | 112 |
| cisplatin and sunitinib | 121 | 79.0 | - | 98.5 | 104 | 106 | 55.1 | 129 | 89.1 | 106 |
| cisplatin and gemcitabine | 154 | 98.8 | - | 107 | 112 | 97.6 | 74.4 | 117 | 119 | 89.7 |
| RKI-983 and bortezomib | 59.9 | 29.8 | - | 99.8 | 94.0 | 91.4 | 154 | 52.2 | 92.3 | 83.3 |
| XAV939 and OSI-906 | 111 | 88.7 | 95.1 | 115 | 90.3 | 100 | 83.9 | 98.7 | - | 85.9 |
| indole-3-carbinol and palbociclib | 95.5 | 115 | - | 79.2 | 87.6 | 97.9 | 98.6 | 106 | 73.6 | 85.5 |

4 of the entries, repeated:

{"combination": "OSI-906 and RKI-983", "LOX IMVI": 44.0, "A101D": 89.6, "C32": 88.3, "MEL-HO": 64.9, "IST-MEL1": 103, "COLO 800": 96.9, "LB2518-MEL": 76.8, "A375": 56.3, "COLO 792": 82.5}
{"combination": "fingolimod and XAV939", "LOX IMVI": 66.8, "A101D": 94.1, "501mel": 56.0, "C32": 95.2, "MEL-HO": 86.7, "IST-MEL1": 101, "COLO 800": 53.3, "LB2518-MEL": 92.2, "COLO 792": 84.3}
{"combination": "gemcitabine and VX-702", "LOX IMVI": 136, "A101D": 87.7, "C32": 106, "MEL-HO": 84.6, "IST-MEL1": 70.8, "COLO 800": 50.1, "LB2518-MEL": 88.1, "A375": 125, "COLO 792": 102}
{"combination": "RKI-983 and VX-702", "LOX IMVI": 101, "A101D": 105, "C32": 99.1, "MEL-HO": 98.2, "IST-MEL1": 97.7, "COLO 800": 98.0, "LB2518-MEL": 127, "A375": 101, "COLO 792": 89.2}